Results from PubChem BioAssay (NCATS).
This list was built around the results that the source calls inconclusive (neither active nor inactive); the mix of calls is not that of the screen. Potencies of inconclusive entries are doubtful fits and often do not repeat. Calls of active or inactive are those of the source. Calls follow the shape of the dose curve; as a rule, active = well fitted activation curve with a large enough effect; inconclusive = small, poorly fitted or top-dose-only effect, or another doubt; inactive = no such curve, though single readings can be large or run the other way.

Biological target: Rap guanine nucleotide exchange factor 3 (Homo sapiens) (UniProt O95398)
Assay: Counterscreen qHTS for agonist of cAMP-regulated guanine nucleotide exchange factor 3 (EPAC1) (AID 1645889); also: nearly all actives have a fitted effect of over 40% in size; as to activation: % of control where 0% means no effect
Conditions: EPAC1 Rap1B-BODIPY-GDP exchange, fluorescence; activation: at 154 µM (top of the series) unless noted
How it was run: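 Rap1B–BODIPY-GDP (250 nM) with 50 uM GDP; compounds pin-transferred to 9.74 nM–152 uM final (activator) or from 7.32 nM upwards (inhibitor). Fluorescence Ex/Em 480/540 nm read at 5 and 30 min, then after adding cAMP or buffer, at room temperature.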
Potency is read from the fitted curve at half-maximal effect.

Compound	Potency	activation
COc1cc(/C=C2\SC(=O)N(c3ccccc3Cl)C2=O)cc([N+](=O)[O-])c1O	inactive	
COc1ccc(C(C[N+](=O)[O-])c2c(C)cc3ccccn23)c(OC)c1 (centres undefined)		inconclusive: 52.2% [activator] [at 30.8 µM]
CCOc1ccc(Oc2ccccc2NC(=O)CN2C(=O)NC3(CCCC3)C2=O)cc1		inactive: 10.7% [at 30.8 µM]
NS(=O)(=O)c1ccc(NC(=O)Cc2c(F)cccc2Cl)cc1	inactive	
COC(=O)c1ccc(OC(=O)c2ccc(OC)cc2)c(OC)c1		inactive: 6.57% [at 30.8 µM]
COC(=O)c1ccc(CNC(=O)/C=C/[C@H]2O[C@@H](n3cc(C)c(=O)[nH]c3=O)C[C@@H]2O)cc1		inconclusive: 36.8% [activator]
Cc1cccc(Cn2c(SCc3ccc(C(=O)N4CCCCCC4)cc3)nc3ccncc32)c1	inconclusive: 10 µM [activator, full curve]	
COc1ccc(N2CCOCC2)c(NC(=O)c2cccc3ccccc23)c1		inactive: 22.6% [at 30.8 µM]
COc1cc(C)ccc1S(=O)(=O)N1CCCCCC1	inconclusive: 0.355 µM [activator, full curve, poor fit]	
COCCn1c(=N)c(C(=O)NC2CCCC2)cc2c(=O)n3cc(C)ccc3nc21	inconclusive: 39.8 µM [activator, partial curve, poor fit]	
Cc1ccc(C)c(NC(=O)CN(C)C(=O)c2cccc(S(=O)(=O)N3CCCC3)c2)c1	inactive	
O=C(OCc1c(-c2ccccc2)ncc2ccccc12)c1ccccc1C(F)(F)F	inactive	
CCOC(=O)C1=C(CC)OC(N)=C(C#N)C1c1ccc(OC)c(OC)c1OC (centres undefined)		inactive: 8.26% [at 30.8 µM]
CCCCC(CC)Cn1c(Oc2ccccc2)nc2c1c(=O)n(C)c(=O)n2C (centres undefined)	inactive	
COc1cc2c(cc1OC)C(c1ccccc1)N(C(=O)c1ccco1)CC2 (centres undefined)	inconclusive: 0.112 µM [activator, full curve, poor fit]	
COC(=O)c1cc(OC)nc2ccc(Br)cc12	inactive	
CC(=O)c1cccc(NC(=O)c2c(-c3ccccc3)c(-c3ccccc3)nn(C)c2=O)c1	inactive	
CCC1=NN(C(=O)c2ccc(Br)cc2)C(O)(c2ccccc2)C1 (centres undefined)		inactive: 19.8% [at 30.8 µM]
CCOC(=O)c1ccccc1NC(=S)N1CCC(N2CCCCC2)CC1	inactive	
Cc1ccc(C2C(C#N)=C3N=C(N)c4ccccc4N3C3=C2C(=O)CCC3)cc1 (centres undefined)		inconclusive: 57.4% [activator] [at 30.8 µM]
Cc1occc1-c1nnc(SCC(=O)Nc2c(F)cccc2F)n1C		inconclusive: 52.5% [activator]
COC(=O)CSc1nc2sc3c(c2c(=O)n1-c1ccc(OC)cc1)CCN(C)C3		inconclusive: 25.5% [activator]
CCCCNC(=O)Cn1nc(N2CCN(c3ccccc3OC)CC2)ccc1=O	inactive	
CCCN1C(=O)c2[nH]nc(-c3cccc(OC)c3)c2C1c1ccccn1 (centres undefined)	inactive	
Cn1c(=O)c2c(nc(N3CCOCC3)n2CCSc2ncccn2)n(C)c1=O	inconclusive: 0.01 µM [activator, full curve, poor fit]	

Compound	Potency	activation
O=C(Nc1cccc(Cl)c1)N(Cc1nc2ccccc2c(=O)[nH]1)Cc1cccs1	inconclusive: 10 µM [activator, partial curve, poor fit]	
Cc1nnc(SCc2nnc(-c3ccc(Cl)cc3)o2)n1-c1ccccc1	inactive	
CC(C)OP(=O)(c1ccc(N(C)C)cc1)C(Nc1ccccc1)c1ccccc1 (centres undefined)		inconclusive: 54.9% [activator]
Cc1c(C(=O)NCCO)sc2nc3n(c(=O)c12)CCC3		inconclusive: 40.3% [activator]
CC(C)(C)c1ccc(N=C2SCC(=O)N2Cc2cccs2)cc1		inconclusive: 33.5% [activator]
Cc1cc2ccccn2c1C(=O)c1ccc(Cl)cc1	active: 0.141 µM	
Cc1ccccc1N(CC(=O)NC1CCCC1)C(=O)c1csnn1		inactive: -0.253% [at 30.8 µM]
O=C(C[n+]1cc(Br)cc2ccccc21)c1ccc(F)cc1		inactive: 21% [at 30.8 µM]
Cc1ccccc1C(=O)NCC(=O)N1CCN(c2ccccn2)CC1		inconclusive: 35.1% [activator] [at 30.8 µM]
CCc1cc2c(=O)c(-c3nc4ccccc4n3C)coc2c(CN2CCCCC2C)c1O (centres undefined)	inactive	
Clc1ccc2nc(C3CCCCC3)c(CC3CCCCC3)n2c1	inconclusive: 0.447 µM [activator, full curve, poor fit]	
Cc1nn(CSc2c(F)c(F)c(F)c(F)c2F)c(C)c1[N+](=O)[O-]		inconclusive: 30.5% [activator] [at 30.8 µM]
CC(C)c1ccc(C2NC(=O)c3c(sc4c3CCN(C)C4)N2)cc1 (centres undefined)	inconclusive: 39.8 µM [activator, partial curve, poor fit]	
C=CCN(c1ccccc1)S(=O)(=O)c1cccc(C(=O)N2CC(C)CC(C)C2)c1 (centres undefined)	inconclusive: 20 µM [activator, partial curve, poor fit]	
OCc1cccc(-c2cnc3c(Nc4cccc(OC(F)(F)C(F)F)c4)nccn23)c1	inconclusive: 7.94 µM [activator, partial curve, poor fit]	
CCOC(=O)C1=C(C)N=C2SC=C(C)N2C1c1ccc(OC)cc1 (centres undefined)	inactive	
COc1nc(C)cc(C)c1S(=O)(=O)c1ccccc1C	inactive	
CNC[C@H]1Oc2ccc(NC(=O)Nc3ccccc3)cc2CC(=O)N([C@H](C)CO)C[C@H]1C	inconclusive: 56.2 µM [activator, partial curve, poor fit]	
CCC(CC)C(=O)N1c2ccccc2C(C)(c2ccccc2)CC1(C)C (centres undefined)	inactive	
CCOC(=O)C1=C(N)OC2=C(C(=O)CC(C)(C)C2)C1c1ccc(CC)s1 (centres undefined)	inconclusive: 0.0631 µM [activator, full curve, poor fit]	
CCOc1c(OC)cccc1C(=O)NCC1(c2ccccc2)CCCC1	inactive	
Cc1[nH][nH]c(=O)c1C(c1ccc(-c2ccc(Cl)c(C(=O)O)c2)o1)c1c(C)[nH][nH]c1=O	active: 11.2 µM	
COc1ccccc1N(C)c1cc2c(c3c1ccn3C)C1CCC2O1 (centres undefined)	inconclusive: 0.794 µM [activator, full curve, poor fit]	
CCOC(=O)C1CCCN(C(=O)C(C)(C)Oc2ccc(Cl)cc2)C1 (centres undefined)	inactive	
CCOc1cc(-c2nnc(NC(=O)C3=COCCO3)o2)cc(OCC)c1OCC		inactive: 5.03% [at 30.8 µM]

One compound at a time (already shown):
`CCOC(=O)C1=C(N)OC2=C(C(=O)CC(C)(C)C2)C1c1ccc(CC)s1` (centres undefined) in the list: Potency: inconclusive: 0.0631 µM [activator, full curve, poor fit]
`COC(=O)c1ccc(OC(=O)c2ccc(OC)cc2)c(OC)c1` in the list: activation: inactive: 6.57% [at 30.8 µM]

The results go on:

Compound	Potency	activation
CCN(CC)S(=O)(=O)c1c(Br)cc(C)cc1Br		inconclusive: 38.8% [activator] [at 30.8 µM]
CS(=O)(=O)c1ccc2c(c1)sc1nc(=O)c(/C=C3/C=CC(=O)C(O)=C3)c(N)n12	inconclusive: 0.224 µM [activator, full curve, poor fit]	
O=C(c1ccco1)N(CCC(c1ccccc1)c1ccco1)Cc1ccco1 (centres undefined)		inconclusive: 38.5% [activator]
Cc1ccc2c(c1)c1c3n2CCN(C(=O)C2CC2)C3CCC1 (centres undefined)		inconclusive: 30.4% [activator]
COc1cc(Nc2nc(SCc3cccc(Cl)c3)nc3ccccc23)cc(OC)c1	inconclusive: 44.7 µM [activator, partial curve]	
CCc1nn2c(-c3ccccc3OC)ccnc2c1-c1ccccc1	inconclusive: 12.6 µM [activator, single point]	
CCCCn1c(CNC(=O)C23CC4CC(CC(C4)C2)C3)nnc1SCC(=O)Nc1ccc(F)cc1	inactive	
COC(=O)CSc1ncnc2scc(-c3ccccc3)c12		inactive: 5.38% [at 30.8 µM]
COC(=O)c1cc2sc(C)cc2n1Cc1cccc(OC)c1	inactive	
Cc1[nH]c2ccccc2c1C(C[N+](=O)[O-])c1cccs1 (centres undefined)		inactive: 46.2% [at 30.8 µM]
CCC(C)NC(=O)CS(=O)Cc1nc(-c2ccccc2C)oc1C (centres undefined)	inactive	
CN(C)c1nc(Oc2ccc(=O)[nH]n2)nc(N2CCOCC2)n1		inconclusive: 35.8% [activator]
CCC/C(=C1/c2ccccc2C(=O)N1c1ccccc1)c1cnc(OC)nc1	inactive	
NNc1nc2c(Cl)c(Cl)ccc2s1	inconclusive: 0.0562 µM [activator, full curve, poor fit]	
COc1ccc(C=C2SC(=O)NC2=O)cc1OC		inconclusive: 58.4% [activator] [at 30.8 µM]
O=C1CCC([N+](=O)[O-])C(c2cccc3ccccc23)N1 (centres undefined)		inactive: 45.7% [at 30.8 µM]
COc1cccc(NC(=O)CSc2nnc3[nH]c(=O)cc(-c4ccccc4)n23)c1		inconclusive: 55.7% [activator]
CCOc1c(OC)cccc1C1CC(=O)Nc2cc3c(cc21)OCCO3 (centres undefined)	inactive	
CCC(C)Sc1c(C(C)C)cnc2c1c(=O)n(C)c(=O)n2C (centres undefined)	inactive	
N#Cc1cc(NC(=O)c2ccc(Cl)cc2)ccc1Sc1ccccc1	inconclusive: 0.01 µM [activator, full curve, poor fit]	
CC(Sc1ccc(Cl)cc1)C(=O)NNC(=O)c1csc(N2CCOCC2)n1 (centres undefined)		inactive: 30.8% [at 30.8 µM]
Clc1ccc(NCc2nc3ccccc3n2CCOc2ccccc2)cc1	inconclusive: 15.8 µM [activator, full curve, poor fit]	
O=c1[nH]c(Nc2ccccc2)cc2ccccc12	inconclusive: 1.41 µM [activator, full curve, poor fit]	
C/C=C/C(=O)N1c2ccc(C)cc2C(C)=CC1(C)C	inactive	

Exported as labelled records: entries from further up.
O=c1[nH]c(Nc2ccccc2)cc2ccccc12
  Potency: inconclusive: 1.41 µM [activator, full curve, poor fit]
C/C=C/C(=O)N1c2ccc(C)cc2C(C)=CC1(C)C
  Potency: inactive
